Assay results taken from PubChem BioAssay AID2073 (Sanford-Burnham Center for Chemical Genomics, 2009).
Screen size: about 290,000 compounds; about 570 (0.2%) were called active. The inconclusive results got no clear call from the source; some entries with a clear call stand among them for comparison. Cut-off read from the data, not from the text of the source: active = inhibition mostly above about 51% (no sharp cut-off); inconclusive = no clear call, values can overlap the other calls; inactive = mostly below about 53%.

Amino acid sequences for entries named in this document (tags omitted).
UniProt Q00975, whole entry, looked up: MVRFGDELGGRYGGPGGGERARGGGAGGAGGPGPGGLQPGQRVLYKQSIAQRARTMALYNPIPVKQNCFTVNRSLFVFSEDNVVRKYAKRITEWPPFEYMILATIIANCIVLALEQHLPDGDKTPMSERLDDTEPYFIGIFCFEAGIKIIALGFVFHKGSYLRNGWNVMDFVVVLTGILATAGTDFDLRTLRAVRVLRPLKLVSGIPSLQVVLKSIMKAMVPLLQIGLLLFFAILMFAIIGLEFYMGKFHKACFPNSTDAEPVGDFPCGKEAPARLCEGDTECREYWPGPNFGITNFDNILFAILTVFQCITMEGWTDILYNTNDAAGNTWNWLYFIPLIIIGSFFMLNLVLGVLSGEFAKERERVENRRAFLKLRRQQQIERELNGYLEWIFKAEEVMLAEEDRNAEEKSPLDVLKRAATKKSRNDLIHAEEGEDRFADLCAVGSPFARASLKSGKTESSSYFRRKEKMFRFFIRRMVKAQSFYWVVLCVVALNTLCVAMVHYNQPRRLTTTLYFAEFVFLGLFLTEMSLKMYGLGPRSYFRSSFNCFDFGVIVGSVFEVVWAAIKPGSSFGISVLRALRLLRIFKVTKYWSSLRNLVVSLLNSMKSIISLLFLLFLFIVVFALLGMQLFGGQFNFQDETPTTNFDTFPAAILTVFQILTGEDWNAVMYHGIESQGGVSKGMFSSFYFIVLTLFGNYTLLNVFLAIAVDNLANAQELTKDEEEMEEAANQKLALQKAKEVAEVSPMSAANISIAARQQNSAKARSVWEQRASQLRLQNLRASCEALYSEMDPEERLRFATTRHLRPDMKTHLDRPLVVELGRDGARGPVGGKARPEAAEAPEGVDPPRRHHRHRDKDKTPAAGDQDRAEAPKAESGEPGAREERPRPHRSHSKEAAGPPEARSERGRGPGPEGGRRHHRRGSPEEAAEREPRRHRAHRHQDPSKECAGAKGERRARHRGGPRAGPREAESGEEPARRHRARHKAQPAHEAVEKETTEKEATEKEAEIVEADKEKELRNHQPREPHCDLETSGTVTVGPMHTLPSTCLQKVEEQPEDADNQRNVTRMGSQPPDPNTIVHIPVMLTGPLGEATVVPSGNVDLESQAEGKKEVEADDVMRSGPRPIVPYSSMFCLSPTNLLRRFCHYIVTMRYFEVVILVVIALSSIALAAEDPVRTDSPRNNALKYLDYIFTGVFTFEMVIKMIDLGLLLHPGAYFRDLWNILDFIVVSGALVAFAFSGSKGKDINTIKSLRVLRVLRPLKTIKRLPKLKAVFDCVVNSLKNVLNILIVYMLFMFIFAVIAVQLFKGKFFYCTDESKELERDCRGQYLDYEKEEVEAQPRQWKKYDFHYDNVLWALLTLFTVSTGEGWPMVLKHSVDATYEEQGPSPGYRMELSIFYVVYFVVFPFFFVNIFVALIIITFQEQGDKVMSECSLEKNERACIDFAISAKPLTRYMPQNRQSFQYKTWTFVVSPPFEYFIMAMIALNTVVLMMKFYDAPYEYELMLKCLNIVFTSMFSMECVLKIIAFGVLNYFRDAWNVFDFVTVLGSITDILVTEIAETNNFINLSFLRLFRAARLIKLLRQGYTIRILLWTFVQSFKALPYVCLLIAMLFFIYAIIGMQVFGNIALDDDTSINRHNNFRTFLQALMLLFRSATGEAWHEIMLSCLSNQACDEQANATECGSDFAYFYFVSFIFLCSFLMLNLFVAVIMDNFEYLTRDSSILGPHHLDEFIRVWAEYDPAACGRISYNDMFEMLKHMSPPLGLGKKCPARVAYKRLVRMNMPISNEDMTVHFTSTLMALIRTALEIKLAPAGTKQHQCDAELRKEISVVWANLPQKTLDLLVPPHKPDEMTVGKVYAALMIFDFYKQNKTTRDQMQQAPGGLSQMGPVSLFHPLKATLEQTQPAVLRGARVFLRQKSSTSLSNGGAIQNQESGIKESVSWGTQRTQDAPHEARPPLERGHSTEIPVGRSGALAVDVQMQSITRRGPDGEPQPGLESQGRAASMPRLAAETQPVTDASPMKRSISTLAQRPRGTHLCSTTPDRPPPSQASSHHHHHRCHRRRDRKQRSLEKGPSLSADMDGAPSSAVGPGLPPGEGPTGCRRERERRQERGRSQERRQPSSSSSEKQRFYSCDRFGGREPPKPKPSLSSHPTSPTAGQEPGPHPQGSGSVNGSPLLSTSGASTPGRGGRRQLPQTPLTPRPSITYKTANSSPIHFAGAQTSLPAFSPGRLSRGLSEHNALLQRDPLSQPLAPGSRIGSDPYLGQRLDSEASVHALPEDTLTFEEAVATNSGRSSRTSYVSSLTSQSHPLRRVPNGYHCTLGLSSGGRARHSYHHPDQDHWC

biological target: Voltage-dependent N-type calcium channel subunit alpha-1B (Homo sapiens) (UniProt Q00975); assay: disruptors of CaV2.2 binding to Mint1 – biochemical, HTRF (AID 2073); settings: HTRF protein-protein interaction, Mint1-CaV2.2; at 20 µM; hits give high values

Structure (SMILES)	inhibition
Cc1ccc(NC(=O)C(C)OC(=O)c2ccc(NS(=O)(=O)c3ccc(F)c(F)c3)cc2)cc1 (centres undefined)	inconclusive: 59.4%
Cc1ccc(-c2[nH]ncc2/C=N/n2c(COc3ccccc3C)nc3ccccc3c2=O)cc1	inconclusive: 63.9%
O=C(Nc1c(C(=O)Nc2cccc(F)c2)oc2ccccc12)c1ccc2c(c1)OCO2	inconclusive: 50.8%
COc1cc(/C=N/N=C(\N)c2nonc2N)ccc1O	inconclusive: 57.5%
O=C(NCc1ccco1)c1cccn2c(=O)c3cc4ccccc4cc3nc12	active: 54.4%
Cc1ccc(C)c(S(=O)(=O)NCc2ccc(C(=O)N3CCOCC3)cc2)c1	inactive: -3.9%
Cn1c(=O)c2c(ncn2CC(=O)N/N=C/c2ccc(Br)s2)n(C)c1=O	inconclusive: 69.6%
O=C(CN(Cc1ccco1)C(=O)c1ccccc1)Nc1ccc(Cl)c(Cl)c1	inconclusive: 50.7%
COc1ccc(Cc2nc(C(=O)Nc3ccc(F)cc3)cs2)cc1	inconclusive: 59.3%
Cn1c(-n2c(CCN3C(=O)c4ccccc4C3=O)nc3ccccc3c2=O)nc2ccccc21	inconclusive: 60.4%
O=C(Nc1cccc(C(F)(F)F)c1)N(Cc1ccc(Cl)cc1)CC(O)C(F)(F)F (centres undefined)	inconclusive: 67.4%
Cn1c(O)c(N=NC(=N)N)c2ccccc21	inconclusive: 57.7%
COc1ccc(C(C(=O)NC(C)(C)C)N(C(=O)CNC(=O)c2cccs2)c2ccc(NC(C)=O)cc2)cc1OC (centres undefined)	inconclusive: 68.9%
O=C(N/N=C/c1ccc([N+](=O)[O-])o1)c1cc(-c2ccncc2)nc2ccccc12	inactive: 20.1%
CC1CN(C(=O)c2cc3c(=O)n4ccccc4nc3n2C)CC(C)O1 (centres undefined)	inconclusive: 53%
COc1ccc(-c2cc(C(=O)NCC3CCCO3)c3cc(C)ccc3n2)cc1 (centres undefined)	inconclusive: 50.1%
CCOC(=O)c1cc(C(=O)NN)c(=O)[nH]c1C	inconclusive: 91.1%
O=C(Nc1ccc(C2=NCCN2)cc1)c1ccc(C(=O)Nc2ccc(C3=NCCN3)cc2)c([N+](=O)[O-])c1	inactive: 30.7%
Cc1cc(Cl)cc(Cl)c1OCC(=O)NCc1ccco1	inactive: -1.4%
COc1ccc(Nc2nnc(SCc3cn4c(C)cccc4n3)s2)cc1	inconclusive: 65.1%
CCOC(=O)c1ccc(N2C(=O)CC(C(=O)OC)=C2C)cc1	inactive: 3.2%
O=C1Nc2ccccc2C1C(C[N+](=O)[O-])c1ccccn1 (centres undefined)	inconclusive: 70.6%
O=C(O)c1cc(NCc2cccs2)ccc1N1CCOCC1	inactive: 9.9%
O=C(CCS(=O)(=O)c1ccccc1)Nc1ccccc1-c1nc2ccccc2s1	inconclusive: 73.1%

Two entries from above, as a markdown table.

| Structure (SMILES) | inhibition |
| --- | --- |
| COc1ccc(Nc2nnc(SCc3cn4c(C)cccc4n3)s2)cc1 | inconclusive: 65.1% |
| CCOC(=O)c1ccc(N2C(=O)CC(C(=O)OC)=C2C)cc1 | inactive: 3.2% |
